Measured values: publication PMC5534430, “Crystal structure of a Pseudomonas malonate decarboxylase holoenzyme hetero-tetramer” (Nature Communications, 2017)
These are yes or no findings as the source states them, for the method shown. For part of these data: Binding calls can cover weak binding; strength is not graded here. For part of these data: In cells and extracts the contact can be indirect. For part of these data: Sequences can lack the tags named with a protein.

Key:
[1] = molecular target: MdcE subunit of malonate decarboxylase (P. aeruginosa), N-terminal His tag (P. aeruginosa); test: crystal structure; MDC hetero-tetramer (MdcA, MdcD, MdcE of P. aeruginosa, MdcC of P. fluorescens): malonate complex at 2.2 Å and CoA complex at 3.0 Å; 20% PEG 3350, 8% Tacsimate; both purified
[2] = molecular target: MdcE subunit of malonate decarboxylase (P. aeruginosa), N-terminal His tag (P. aeruginosa); test: crystal structure; MdcD–MdcE complex, 1.86 Å, selenomethionyl SAD; two copies in the asymmetric unit; crystals at 20 °C, 0.1 M Bis-Tris pH 5.8, 18% PEG 3350, 0.2 M ammonium acetate; both purified
[3] = molecular target: MdcE with deletion of the C-terminal residues 242–268, His-tagged (P. aeruginosa); test: pull-down; nickel pull-down; only MdcE carries a His tag; wild-type and mutant subunits expressed as for the wild-type hetero-tetramer

Binder	binding [1]	binding [2]	binding [3]
MdcD subunit of malonate decarboxylase (P. aeruginosa) (protein, UniProt Q9I6S7 1-287) MTDVARLLALRSFTELGARQRARALLDAGSFRELLDPFAGVQSPWLERQGIVPQADDGVVVARGLLDGQPAVLAAIEGAFQGGSLGEVSGAKIAGALELAAEDNRNGVPTRALLLLETGGVRLQEANLGLAAIAEIQAAIVDLQRYQPVVAVIAGPVGCFGGMSIAAGLCSYVLVTREARLGLNGPQVIEQEAGIAEYDSRDRPFIWSLTGGEQRFASGLADAYLADDLDEVRTSVLAYFAKGLPARPRCRRAEDYLRRLGDLDTAEQPDAAGVRRLYQGLGQGDAT	binds	binds	–
MdcC subunit (acyl-carrier protein) of malonate decarboxylase (P. fluorescens), untagged (protein, UniProt Q4K4F7 1-99) METLSFEFPAGQPGRGRALVGCVGSGDLEVLLEPGQPGKLSIQVQTSVNGSASRWQHLFERLFDGQTPPALLIDIHDFGATPGVVRLRLEQGFEEIGHD	–	–	no binding
